Assay results as given in publication PMC5591878.
These are yes or no findings as the source states them, for the method shown. In cells and extracts the contact can be indirect. Here binding means that the protein was enriched with, or labelled near, the bait; the list need not be complete. For some assays here: Sequences can lack the tags named with a protein. Values belong to the binder of their own block, whether it stands above or below them.

Chains of the proteins cited; added tags and fusions are not shown.
UniProt P48580: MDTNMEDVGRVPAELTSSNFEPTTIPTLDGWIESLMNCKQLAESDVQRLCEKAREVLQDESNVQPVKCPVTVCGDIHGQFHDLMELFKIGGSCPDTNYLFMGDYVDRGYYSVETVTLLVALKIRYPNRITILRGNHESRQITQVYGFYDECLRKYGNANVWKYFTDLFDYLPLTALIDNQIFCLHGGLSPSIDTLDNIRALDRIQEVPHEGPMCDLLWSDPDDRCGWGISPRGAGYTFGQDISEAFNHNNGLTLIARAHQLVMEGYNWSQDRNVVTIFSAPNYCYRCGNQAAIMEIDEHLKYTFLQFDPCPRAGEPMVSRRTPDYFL

Legend:
Experiment in all cases: affinity purification with mass spectrometry; tagged proteins immunoprecipitated with anti-cMYC or anti-GFP antibodies, run briefly on a 4-12% SDS-PAGE gel, digested with trypsin, LC-MS on a Q Exactive plus
[1] = molecular target: MYC::PPH1, PP2A catalytic subunit PPH1 with MYC tag (Neurospora crassa) (UniProt P48580)
[2] = molecular target: B56::GFP, PP2A regulatory subunit B56 fused to GFP (Neurospora crassa)
[3] = molecular target: RGB1::GFP, PP2A regulatory subunit RGB1 fused to GFP (Neurospora crassa)

B2: GUL1 (protein, UniProt Q1K842 1-1365)
chain: MDQQQQPQGGVSGPAGRRLHIAHRRSPSELTPLMSMFSNTNMEQLAIQQQIELLQQQQQQITAQYANLGMLPATQPLGPGGFTNFQPIAGLAPQAGFQFPVQLQQQPPLAPPTQPLSHRRNQSAIPNMGMGGPPPAPSAGASGSTFGNFQDPTQGHARENSTGGRGGRGGSGGGHQRRHSLALADAKKAAEIAQQKRTTSTFQFPAAPAPGSSEKSEDDAKTTPSTTPAPAEGQIAQGSSFRGGRGGHGRSQSMAVGANGRGGRGGHFSTDSVGQGSDFSRRAPGSGHARTGSRNFDGNWRNQNQNQNQNQAQDQTAALPQSQGFQPGHRSRGSVSQSISSIGSFQYPGQPQLVQFPGQMMMPQVFPGQQLNPMQLNQLQALQLAQMNGQPLTGLAASQHAPQMAAPGQQSQQQQRKTLFTPYLPQATLPALLGNGQLVSGILRVNKKNRSDAYVSTQDGLLPADIFICGSKDRNRALEGDLVAVELLDVGEVWAQKREKEEKKKRKDITDTRSGSISGGQNTGDDNGNAEGGLRRRGSLRQRPTQKKNDDVEVEGQSLLLVEEEEINDEQQPLFAGHIVAVIERVPGQMFSGTLGLLRPSSQATKEKQEAERAARDGGNGRQQDSRSHEKPKIVWFKPTDKRVPLIAIPTEQAPKDFVEKHQDYADQIFVACIKRWPITSLHPFGTLVEKLGKMGDLKVETDALLRDNNFASDEFAEAVLRNVSQQDWSLESEDQAALAARRDFRGENVFTVELDSSVELGNGVHFKQLPDGKIEIGIHVPDVAHFVKPGSLVDREAKKRGTAVHLVNRFCALLPPKLSSELCTLTPEQDRLTFSVVFHVNPQTGAVAEGDTWIGKGIVKSGGKVSLSEIDEAISGSSGFSHPSVKALDIQILNAVAQKFREARLGAGGEPIAPLRLLQQLDDENIPPKHNIFESSQATELVEELMHKANTHVAQRLAQGLPEKALLRRQSAPNSRRLQTIIDRMTALGYDIDATSSGTLQNSLFKIDDSDIRKGMETLLVKSMQRAKYFIAGKTASLLWPHYALNLPLYTHFTYPTRRYADIIVHRQLEAVLSDGKIEYTEDLENLVKTVESCNTKKDSAQNAQEQSVHIESCRTMDKKRQEVNGDLISEGIVICVYESAFDVLIPEWGFEKRVHCDQLPLKKAEFRKEKRVLELYWEKGVPSSAYVPEDERPKAAASQRISNALAAARQAEEAERAKKDREEAARKQIETGTVSHDDVDALFQDEDEDDIEDNASDITEAMAGASLAERPTQSVPGSPTQSAAEAVGTLHRTRSDSKVPVGEAPEARLTNKEKYLKLFKLREEGGEYIQDVTEMTRVPVILKTDLSKSPPCLTIRSLNPYAL
binding [1]: binds

B4: COT1, nuclear Dbf2-related (NDR) Ser/Thr kinase (protein, UniProt P38679 1-598)
chain: MDNTNRPHLNLGTNDTRMAPNDRTYPTTPSTFPQPVFPGQQAGGSQQYNQAYAQSGNYYQQNHNDPNTGLAHQFAHQNIGSAGRASPYGSRGPSPAQRPRTSGNSGQQQTYGNYLSAPMPSNTQTEFAPAPERNPDKYGPNANNNQKKCSQLASDFFKDSVKRARERNQRQSEMEQKLGETNDARRRESIWSTAGRKEGQYLRFLRTKDKPENYQTIKIIGKGAFGEVKLVQKKADGKVYAMKSLIKTEMFKKDQLAHVRAERDILAESDSPWVVKLYTTFQDANFLYMLMEFLPGGDLMTMLIKYEIFSEDITRFYIAEIVLAIDAVHKLGFIHRDIKPDNILLDRGGHVKLTDFGLSTGFHKLHDNNYYTQLLQGKSNKPRDNRNSVAIDQINLTVSNRAQINDWRRSRRLMAYSTVGTPDYIAPEIFTGHGYSFDCDWWSLGTIMFECLVGWPPFCAEDSHDTYRKIVNWRHSLYFPDDITLGVDAENLIRSLICNTENRLGRGGAHEIKSHAFFRGVEFDSLRRIRAPFEPRLTSAIDTTYFPTDEIDQTDNATLLKAQQAARGAAAPAQQEESPELSLPFIGYTFKRFDNNFR
binding [1]: binds

Further lines, results first:

binding [1]: binds
B1: MOB2B (protein, UniProt Q7SD46 1-303)
chain: MPSPSNNSISSQSSANLSSKLPPLPASPSLSQSIGMMGTGEEALNAYHLPRPLPLWLNPTAAKHIVKGNFMTLSARPKTVEQGEWIAHQVVEHYRNLWNFVRVVYEKEEDGKSICNSITCPRMSAGTNHSYTWLNSRFEPIELPAYEYITLMQRWISGKIDDTKMFPTEASGVSFAHNPQITTTALLTGPDDWIGKRSGFPKEFFNICQTIFLQMFRVYAHLYWAHFTEPFYHLNLEKQLNSCFSHFVLTATALDMLKPAELEPMQPLIDLWAANGTFPPESKAYEYANLKVGTRLMQMAGLA

binding [2]: binds
binding [3]: binds
B3: MYC::COT1, COT1 kinase with MYC tag (enzyme, UniProt P38679 1-598)
chain: B4 chain
